Literature values, collected in patent US20070259837A1, “Use of Non-Glucocorticoid Steroids for the Treatment of Muscular Dystrophy” (SANTHERA PHARMACEUTICALS (SCHWEIZ) AG, priority 2004, published 2007).
At least one compound was matched to its structure with a doubt left.

System: utrophin protein in human muscle cells derived from DMD patients
Conditions: Courdier-Fruh et al. 2002; cited from earlier work

In the case of `CC1(C)O[C@@H]2C[C@H]3[C@@H]4CCC5=CC(=O)C=C[C@]5(C)[C@@]4(F)[C@@H](O)C[C@]3(C)[C@]2(C(=O)CO)O1` [triamcinolone acetonide], the “increase of utrophin protein content in human muscle cells (reported for glucocorticoids)” value is listed as “increase of utrophin protein content”.
